Counter-ions that a name gives are not always drawn. The full ranking holds about 1,000 compounds; the median of “cFRET/donor change relative to DMSO, normalised to beta-lapachone positive control (supercomplex I-IV assembly)” is about 0.18, and the lowest 2% start at about -1. Some of the results follow.
What follows are compounds tested on C2C12 (NDUFB8-AcGFP / COX8A-DsRed-Monomer FRET reporter) (assay: cFRET/donor change relative to DMSO, normalised to beta-lapachone positive control (supercomplex I-IV assembly) (fraction of beta-lapachone effect); higher = more respiratory supercomplex assembly). Conditions: 40 µM; 24 h.
Description: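 Cells were treated with 40 uM compound for 24 h and imaged on an IN Cell Analyzer 6000. Corrected FRET was divided by donor signal (cFRET/donor) and measured in two replicate experiments. The score is (mean cFRET/donor of compound - mean DMSO) / (mean beta-lapachone 40 uM - mean DMSO). Compounds flagged for prominent cell death, abnormal morphology or decreased cell number were excluded.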

SMILES | cFRET/donor change
CC(=O)NCCc1c[nH]c2ccc(O)cc12 [N-Acetyl-5-hydroxytryptamine] | 0.125
CCCN(CCC)C(=O)C(CCC(=O)O)NC(=O)c1ccccc1 (configuration not stated) [Proglumide] | 0.00228
CN1CCC(=C2c3ccccc3CC(=O)c3sccc32)CC1 [Ketotifen fumarate] | 2.99
COc1ccccc1N1CCN(CC(O)COc2cccc3ccccc23)CC1 (configuration not stated) [Naftopidil dihydrochloride] | 0.0361
COCCOc1cc2nc[nH]c(=O)c2cc1OCCOC | 0.343
S=C(Nc1ccccc1)Nc1nccs1 [1-Phenyl-3-(2-thiazolyl)-2-thiourea] | -0.184
CS(=O)(=O)c1cccc(CNc2nc(Nc3ccc4c(c3)CCC(=O)N4)ncc2C(F)(F)F)c1 | 2
COc1ccc(-c2ccc(=N)n(CCCC(=O)O)n2)cc1 | -0.0951
CSc1ccc(C(=O)c2[nH]c(=O)[nH]c2C)cc1 [Enoximone] | 0.0139
N[C@@H](Cn1ccc(=O)c(O)c1)C(=O)O [L-Mimosine from Koa hoale seeds] | 0.525
CC1(C2CCCC2)Cc2cc(OCC(=O)O)c(Cl)c(Cl)c2C1=O (configuration not stated) | 0.0296
CO[C@H]1O[C@@H]2O[C@@]3(C)CC[C@H]4[C@H](C)CC[C@@H]([C@H]1C)[C@@]24OO3 [Artemether] | 0.954
N#C/C(=C\c1ccc(O)c(O)c1)C(=O)c1ccc(O)c(O)c1 [Tyrphostin AG 538] | -0.47
NC12CC3CC(CC(C3)C1)C2 [Amantadine hydrochloride] | 0.0173
CC(=O)[C@H]1CC[C@H]2[C@@H]3CC=C4C[C@@H](OS(=O)(=O)O)CC[C@]4(C)[C@H]3CC[C@]12C [Pregnenolone sulfate sodium] | 0.0635
NCC=CC(=O)O (stereo in doubt) [cis-4-Aminocrotonic acid] | 0.532
CN1CCN(C2=Nc3cc(Cl)ccc3Nc3ccccc32)CC1 [Clozapine] | 0.262
O=C(O)c1ccccc1Nc1ccccc1 [N-Phenylanthranilic acid] | 0.206
Brc1ccc([C@H]2CN3CCSC3=N2)cc1 [S(-)-p-Bromotetramisole oxalate] | 0.185
C=CC[C@H](N)C(=O)O [L-allylglycine] | -0.0304
CC(C)NC[C@H](O)COc1ccc(CC(N)=O)cc1 [S(-)-Atenolol] | 0.102
c1cnc2c(c1)ccc1cccnc12 [1,10-Phenanthroline monohydrate] | -0.0997
CO[C@@]1(NC(=O)CSCC#N)C(=O)N2C(C(=O)O)=C(CSc3nnnn3C)CS[C@@H]21 [Cefmetazole sodium] | 0.501
CN1CCc2cccc3c2[C@H]1Cc1ccc(O)c(O)c1-3 [Apomorphine hydrochloride hemihydrate] | -0.23
CCC(NC(C)C)C(O)c1ccc(O)c(O)c1 (configuration not stated) [Isotharine mesylate] | 0.454
NCCCCNCCCN [Spermidine trihydrochloride] | -0.058

Three entries from above, arranged by formula weight, smallest number first:
SMILES | cFRET/donor change
NCCCCNCCCN [Spermidine trihydrochloride] | -0.058
O=C(O)c1ccccc1Nc1ccccc1 [N-Phenylanthranilic acid] | 0.206
CO[C@H]1O[C@@H]2O[C@@]3(C)CC[C@H]4[C@H](C)CC[C@@H]([C@H]1C)[C@@]24OO3 [Artemether] | 0.954

Further structures follow:

SMILES | cFRET/donor change
NC(Cc1cccc(-c2ccccc2CP(=O)(O)O)c1)C(=O)O (stereo not drawn) [Phenylbenzene-omega-phosphono-alpha-amino acid] | 0.0887
N[C@H](CO)C(=O)O [D-Serine] | 0.172
CC(C)(C)c1ccc(C(O)CCCN2CCC(C(O)(c3ccccc3)c3ccccc3)CC2)cc1 (configuration not stated) [Terfenadine] | 0.479
CC(C)c1ccc2c(c1)c(SC(C)(C)C)c(CC(C)(C)C(=O)O)n2Cc1ccc(Cl)cc1 | 0.423
CC(C)Cn1c(=O)n(C)c(=O)c2[nH]cnc21 [3-Isobutyl-1-methylxanthine] | 0.0157
CCCCOc1cc(CC2CNC(=O)N2)ccc1OC (configuration not stated) | 0.0817
CN(C)CCCN1c2ccccc2Sc2ccc(Cl)cc21 [Chlorpromazine hydrochloride] | 0.39
Nc1ccn([C@@H]2O[C@H](CO)[C@@H](O)[C@@H]2O)c(=O)n1 [Cytosine-1-beta-D-arabinofuranoside hydrochloride] | -0.147
Nc1ncnc2c1ncn2C1CCCO1 (configuration not stated) | -0.23
N[C@@H](Cc1ccc(O)c(I)c1)C(=O)O [3-Iodo-L-tyrosine] | 0.0637
COc1ccc(CCNc2nc(N3CCc4cc(OC)c(OC)cc4C3)c3cc(OC)c(OC)cc3n2)cc1OC | 0.14
CCCN(CCc1ccccc1)C1CCc2c(O)cccc2C1 (racemic) [(±)-PPHT hydrochloride] | 0.728
Cc1ccc(S(=O)(=O)NC(=O)NN2CCCCCC2)cc1 [Tolazamide] | 0.182
C=CCn1c(=O)c2c(nc(-c3ccc(S(=O)(=O)O)cc3)n2C)n(C)c1=O [1-Allyl-3,7-dimethyl-8-p-sulfophenylxanthine] | -0.00281
C[N+](C)(C)CCOC(=O)CCC(=O)OCC[N+](C)(C)C [Succinylcholine chloride] | 0.179
CCN1CCc2nc(N)oc2CC1 [B-HT 933 dihydrochloride] | 0.0293
CN(C)c1ccc(O)c2c1C[C@H]1C[C@H]3[C@H](N(C)C)C(O)=C(C(N)=O)C(=O)[C@@]3(O)C(O)=C1C2=O [Minocycline hydrochloride] | -0.869
CCCCCCCCCC(=O)NC(CN1CCOCC1)[C@H](O)c1ccccc1 (mixture of isomers) | 0.453
CN(Cc1cnc2nc(N)nc(N)c2n1)c1ccc(C(=O)N[C@@H](CCC(=O)O)C(=O)O)cc1 [Methotrexate hydrate] | -0.135
NC(N)=Nc1nc(CSCC/C(N)=N/S(N)(=O)=O)cs1 [Famotidine] | 0.138
CSc1ccc2c(c1)N(CCC1CCCCN1C)c1ccccc1S2 (configuration not stated) [Thioridazine hydrochloride] | 0.238
NC1C=CC=C(C(=O)O)C1 (configuration not stated) [Gabaculine hydrochloride] | -0.333
CC1=C(/C=C/C(C)=C/C=C/C(C)=C\C(=O)O)C(C)(C)CCC1 [13-cis-retinoic acid] | 0.06
Nc1nc(OCc2ccccc2)c2nc[nH]c2n1 [O6-benzylguanine] | -0.0213
Nc1ccc(CCNc2ncnc3c2ncn3C2OC(CO)C(O)C2O)cc1 (configuration not stated) [N6-2-(4-Aminophenyl)ethyladenosine] | 0.338
COCCOc1cc2ncnc(Cl)c2cc1OCCOC | 0.0633
